This passage reports binding results from paper PMC5515574.

Assay [1] addresses mutant T238V yeast αβ-tubulin (T238V in Tub2p, β-tubulin) (yeast (S. cerevisiae)). Kind of assay: fluorescence imaging of microtubule decoration in vitro; wild-type or T238V yeast microtubules grown in 1 mM GTP in the presence of 50 nM Bim1-GFP; fluorescence intensity along growing microtubules; both purified.
Assay [2] deals with wild-type yeast αβ-tubulin with a His6 tag fused to the C-terminus of β-tubulin (yeast (S. cerevisiae)). The assay is described as above.

These are yes or no findings as the source states them, for the method shown. Binding can be weak; no strength is given. Tags and fused reporters may be left off the sequences shown.

B1: Bim1-GFP (protein, UniProt P40013 1-344)
chain: MSAGIGESRTELLTWLNGLLNLNYKKIEECGTGAAYCQIMDSIYGDLPMNRVKFNATAEYEFQTNYKILQSCFSRHGIEKTVYVDKLIRCKFQDNLEFLQWLKKHWIRHKDESVYDPDARRKYRPIITNNSATKPRTVSNPTTAKRSSSTGTGSAMSGGLATRHSSLGINGSRKTSVTQGQLVAIQAELTKSQETIGSLNEEIEQYKGTVSTLEIEREFYFNKLRDIEILVHTTQDLINEGVYKFNDETITGHGNGNGGALLRFVKKVESILYATAEGFEMNDGEDELNDKNLGEHGTVPNQGGYANSNGEVNGNEGSNHDVIMQNDEGEVGVSNNLIIDEETF
Regarding B1, the binding result in assay [1] and in assay [2] was “binds” throughout.
